The results in this text go back to paper PMC4939300.

Chains of the proteins cited; added tags and fusions are not shown.
UniProt P08515, whole entry: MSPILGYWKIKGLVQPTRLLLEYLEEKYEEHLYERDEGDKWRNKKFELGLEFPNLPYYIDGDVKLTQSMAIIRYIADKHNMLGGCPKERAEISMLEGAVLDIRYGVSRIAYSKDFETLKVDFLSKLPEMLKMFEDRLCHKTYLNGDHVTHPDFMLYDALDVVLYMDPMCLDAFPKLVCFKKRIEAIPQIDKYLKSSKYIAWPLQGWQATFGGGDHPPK

For at least one entry, the source does not settle the construct or the ends of the probe. For some of these results: No signal at the amounts used counts as a negative. For some of these results: At least one verdict rests on a figure or table, not on a statement of the authors.

The subject of the first series is GST-MaDEAR1. Kind of series: EMSA. The following applies: EMSA kit (Thermo) per manufacturer; 2e-6 umol biotin probe; unlabeled self-competitor 2e-5 to 2e-3 umol; 6% native PAGE; pH and temperature not stated; recombinant protein; protein details: N-terminal GST (pGEX-4T-1); label: 3' biotin.
As for “CAGCCGTTGGTATCTCATCGTACCGACCACGTTGCAGACACAGCTATG (double strand) [MaEXP3 promoter probe]”, the binding result is “binds”.

Regarding “CCCGCAACAACGTTGCAGATGCACCGACCTCATTCAATTCGTGGGGAAGA (double strand) [MaPG1 promoter probe]”, the binding result is on record as “binds”.

Take “CCGCGTCGGTTCATGTGATGTGGATCACGTACAGTTTGCGAGGACGAGCGTCGGCGGCC (double strand) [MaPL3 promoter probe]”: the binding result is on record as “binds”.

Consider “TATAAGGCTTCCGACAAAGCCGACTACTCAACCGAACCGATCCGAAGAGTCCCGTG (double strand) [MaXTH10 promoter probe]”, for which the binding result is on record as “binds”.

Regarding “TCCTTCTTCTTCTTCTTCTTCTGCCGACCTCGTCCCACCTCCGAACTGCA (double strand) [MaPME3 promoter probe]”, the binding result was “binds”.

Regarding “TCTTCCTCGCCACGTGAAGACGTCGGCAGCCCGGAACAGCATGTGCTC (double strand) [MaEXP1 promoter probe]”, the binding result is on record as “binds”.

The next series concerns the target GST (UniProt P08515). Kind of series: EMSA. The following applies: EMSA kit (Thermo) per manufacturer; 2e-6 umol biotin probe; unlabeled self-competitor 2e-5 to 2e-3 umol; 6% native PAGE; pH and temperature not stated; recombinant protein; protein details: GST only; label: 3' biotin. (A gel shift assay detects complexes by their altered migration in electrophoresis.)
For the sequence “TCTTCCTCGCCACGTGAAGACGTCGGCAGCCCGGAACAGCATGTGCTC (double strand) [MaEXP1 promoter probe]”, the binding result is on record as “no binding”.
